Common to all, as to assay: co-IP
Test [1] deals with Zdhhc5^RNAR (Tyr146Ala) (mouse) (UniProt Q8VDZ4).
For test [2], the target named is Zdhhc5^RNFR (Tyr146Phe) (mouse) (UniProt Q8VDZ4).
In test [3] the target is T1, HA-Zdhhc19 (mouse) (mouse) (UniProt Q810M5).
T1 sequence: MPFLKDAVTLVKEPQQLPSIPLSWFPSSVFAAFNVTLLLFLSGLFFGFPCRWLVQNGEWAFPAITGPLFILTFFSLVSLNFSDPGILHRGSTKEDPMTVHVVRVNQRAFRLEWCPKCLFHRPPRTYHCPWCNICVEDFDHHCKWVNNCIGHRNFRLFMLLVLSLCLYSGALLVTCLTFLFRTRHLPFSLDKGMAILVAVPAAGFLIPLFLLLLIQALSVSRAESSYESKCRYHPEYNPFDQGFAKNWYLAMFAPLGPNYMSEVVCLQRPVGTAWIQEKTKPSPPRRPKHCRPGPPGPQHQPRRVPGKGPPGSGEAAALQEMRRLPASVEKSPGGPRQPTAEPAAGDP

Sequences of proteins named here, by UniProt entry; tags and fusion partners are left off. A change or cut given only in a name is not applied to a line headed by its entry.
UniProt Q7Z5G4, whole entry: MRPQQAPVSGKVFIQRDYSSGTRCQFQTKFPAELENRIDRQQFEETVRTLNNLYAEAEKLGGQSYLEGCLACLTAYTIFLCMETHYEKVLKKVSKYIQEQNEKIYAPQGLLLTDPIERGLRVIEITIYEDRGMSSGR

For test [4], the target named is T2, HA-Zdhhc13 (mouse) (mouse) (UniProt Q9CWU2).
T2 sequence: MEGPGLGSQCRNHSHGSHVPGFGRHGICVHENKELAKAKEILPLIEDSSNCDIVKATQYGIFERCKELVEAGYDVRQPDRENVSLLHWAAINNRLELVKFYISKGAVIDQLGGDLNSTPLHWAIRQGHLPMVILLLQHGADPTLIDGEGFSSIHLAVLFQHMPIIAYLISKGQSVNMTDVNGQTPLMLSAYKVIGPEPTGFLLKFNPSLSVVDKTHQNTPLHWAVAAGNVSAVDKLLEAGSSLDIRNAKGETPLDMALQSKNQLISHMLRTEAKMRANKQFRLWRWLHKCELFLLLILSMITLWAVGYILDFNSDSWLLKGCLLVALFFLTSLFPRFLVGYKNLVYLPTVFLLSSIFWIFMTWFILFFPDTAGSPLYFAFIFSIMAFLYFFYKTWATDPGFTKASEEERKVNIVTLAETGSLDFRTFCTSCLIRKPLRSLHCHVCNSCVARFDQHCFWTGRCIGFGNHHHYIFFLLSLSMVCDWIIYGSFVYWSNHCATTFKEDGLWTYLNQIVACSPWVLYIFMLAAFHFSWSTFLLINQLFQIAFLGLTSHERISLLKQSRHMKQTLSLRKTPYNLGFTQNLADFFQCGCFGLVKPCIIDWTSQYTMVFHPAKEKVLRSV

For test [5], the target named is T3, HA-Zdhhc11 (mouse) (mouse) (UniProt Q14AK4).
T3 sequence: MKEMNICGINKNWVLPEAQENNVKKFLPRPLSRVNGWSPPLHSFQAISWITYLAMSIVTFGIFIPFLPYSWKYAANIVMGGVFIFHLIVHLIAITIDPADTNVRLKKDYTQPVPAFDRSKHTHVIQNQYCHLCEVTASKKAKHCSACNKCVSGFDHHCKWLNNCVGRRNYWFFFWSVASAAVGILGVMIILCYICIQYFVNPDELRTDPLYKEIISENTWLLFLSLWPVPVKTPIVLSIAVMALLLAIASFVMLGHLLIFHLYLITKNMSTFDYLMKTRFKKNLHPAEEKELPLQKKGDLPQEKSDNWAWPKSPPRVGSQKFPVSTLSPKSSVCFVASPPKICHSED

The target in test [6] is T4, HA-Zdhhc1 (mouse) (mouse) (UniProt Q8R0N9).
T4 sequence: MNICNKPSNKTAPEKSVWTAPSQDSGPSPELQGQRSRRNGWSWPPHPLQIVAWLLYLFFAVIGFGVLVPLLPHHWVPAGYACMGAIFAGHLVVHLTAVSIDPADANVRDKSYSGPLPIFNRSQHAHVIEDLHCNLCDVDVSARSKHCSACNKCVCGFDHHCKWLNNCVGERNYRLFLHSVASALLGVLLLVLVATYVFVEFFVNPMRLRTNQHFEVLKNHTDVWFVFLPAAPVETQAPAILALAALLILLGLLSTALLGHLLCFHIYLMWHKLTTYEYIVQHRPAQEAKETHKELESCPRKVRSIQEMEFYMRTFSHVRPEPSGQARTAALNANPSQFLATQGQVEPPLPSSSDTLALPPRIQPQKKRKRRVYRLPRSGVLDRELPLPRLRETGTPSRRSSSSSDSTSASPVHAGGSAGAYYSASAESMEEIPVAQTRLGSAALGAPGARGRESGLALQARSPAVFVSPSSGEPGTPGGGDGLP

These are yes or no findings as the source states them, for the method shown. Binding seen in cells or lysates may run through a third protein. Some results given as binding are weak or reduced against the parent protein; the word gives no strength. For part of these data: Tags and fused reporters may be left off the sequences shown.

Take “endogenous human GOLGA7 (from UniProt Q7Z5G4 1-137)”: the binding entry was “binds” in test [1]; “binds” in test [2]; “no binding” in test [3]; “no binding” in test [4]; “no binding” in test [5]; “binds” in test [6].

Values taken from publication doi:10.1101/2025.04.28.651057.
